{"source": "patent US11230581B2", "about": "“Peptides and combination of peptides for use in immunotherapy against ovarian cancer and other cancers” (Immatics Biotechnologies GmbH, priority 2015, dated 2022)", "key": {"[1]": {"tested_on": "ovarian cancer samples", "assay": "Relative LC-MS quantitation of HLA-presented peptides: presentation and over-presentation on ovarian cancer vs a panel of normal tissues (presentation score)", "set-up": "species or system human; key: +++: very highly over-presented on tumors compared to a panel of normal tissues; ++: highly over-presented on tumors compared to a panel of normal tissues; +: over-presented on tumors compared to a panel of normal tissues", "settings": "over-presentation on tumors compared to a panel of normal tissues"}, "[2]": {"tested_on": "additional tumor types", "assay": "LC-MS detection and over-presentation of the peptides on additional tumor types, cell lines and primary cultures", "set-up": "species or system human", "settings": "for Other relevant organs/ cancerous diseases: Table 4A: additional tumor types on which the peptide was found, over-presented on more than 5% of measured tumor samples, or presented on more than 5% with ratio of geometric means tumor vs normal tissues larger than 3; for Additional organs/cancerous diseases: additional tumor types with over-presentation on more than 5% of the measured tumor samples, or presentation on more than 5% with ratio of geometric means tumor vs normal tissues larger than 3"}}}
{"substance": "303 (AILPQLFMV; listed as Homo sapiens) [compound 303]", "values": [{"measurement": "Peptide Presentation (presentation score)", "setting": "[1]", "result": "+"}, {"measurement": "Other relevant organs/ cancerous diseases", "setting": "[2]", "result": "NSCLC, RCC, CRC, BrCa, Esophageal Cancer, Urinary bladder Cancer"}, {"measurement": "Additional organs/cancerous diseases", "setting": "[2]", "result": "Melanoma"}]}
{"substance": "307 (ALPVSLPQI; listed as Homo sapiens) [compound 307]", "values": [{"measurement": "Peptide Presentation (presentation score)", "setting": "[1]", "result": "+"}, {"measurement": "Additional organs/cancerous diseases", "setting": "[2]", "result": "CLL, BRCA, Melanoma, AML, NHL, HNSCC"}]}
{"substance": "308 (SQYSGQLHEV; listed as Homo sapiens) [compound 308]", "values": [{"measurement": "Peptide Presentation (presentation score)", "setting": "[1]", "result": "+"}, {"measurement": "Other relevant organs/ cancerous diseases", "setting": "[2]", "result": "Leukemia, Gallbladder, Bile duct"}, {"measurement": "Additional organs/cancerous diseases", "setting": "[2]", "result": "CLL"}]}
{"substance": "311 (RLYTGMHTV; listed as Homo sapiens) [compound 311]", "values": [{"measurement": "Peptide Presentation (presentation score)", "setting": "[1]", "result": "+"}, {"measurement": "Other relevant organs/ cancerous diseases", "setting": "[2]", "result": "RCC, CRC, PC, Esophageal Cancer, Urinary bladder Cancer"}, {"measurement": "Additional organs/cancerous diseases", "setting": "[2]", "result": "SCLC, BRCA, NHL, HNSCC"}]}
{"substance": "315 (YLQDVVEQA; listed as Homo sapiens) [compound 315]", "values": [{"measurement": "Peptide Presentation (presentation score)", "setting": "[1]", "result": "++"}, {"measurement": "Other relevant organs/ cancerous diseases", "setting": "[2]", "result": "SCLC, Endometrium"}]}
{"substance": "318 (GLINTGVLSV; listed as Homo sapiens) [compound 318]", "values": [{"measurement": "Peptide Presentation (presentation score)", "setting": "[1]", "result": "+"}, {"measurement": "Other relevant organs/ cancerous diseases", "setting": "[2]", "result": "Colon, Rectum"}, {"measurement": "Additional organs/cancerous diseases", "setting": "[2]", "result": "SCLC, CLL, NHL, HNSCC"}]}
{"substance": "319 (SLEPQIQPV; listed as Homo sapiens) [compound 319]", "values": [{"measurement": "Peptide Presentation (presentation score)", "setting": "[1]", "result": "+"}, {"measurement": "Other relevant organs/ cancerous diseases", "setting": "[2]", "result": "NSCLC, CRC, Leukemia, Esophageal Cancer"}, {"measurement": "Additional organs/cancerous diseases", "setting": "[2]", "result": "HCC, CLL, BRCA, Melanoma, Gallbladder Cancer and Bile Duct Cancer, AML, HNSCC"}]}
{"substance": "320 (KMFEFVEPLL; listed as Homo sapiens) [compound 320]", "values": [{"measurement": "Peptide Presentation (presentation score)", "setting": "[1]", "result": "+"}, {"measurement": "Other relevant organs/ cancerous diseases", "setting": "[2]", "result": "Colon, Rectum"}, {"measurement": "Additional organs/cancerous diseases", "setting": "[2]", "result": "SCLC, Brain Cancer, BRCA, Melanoma, Urinary Bladder Cancer, Uterine Cancer, Gallbladder Cancer and Bile Duct Cancer, AML, HNSCC"}]}
{"substance": "321 (GLFEDVTQPGILL; listed as Homo sapiens) [compound 321]", "values": [{"measurement": "Peptide Presentation (presentation score)", "setting": "[1]", "result": "++"}, {"measurement": "Other relevant organs/ cancerous diseases", "setting": "[2]", "result": "Leukemia, Melanoma"}, {"measurement": "Additional organs/cancerous diseases", "setting": "[2]", "result": "CLL"}]}
{"substance": "322 (TLMTSLPAL; listed as Homo sapiens) [compound 322]", "values": [{"measurement": "Peptide Presentation (presentation score)", "setting": "[1]", "result": "++"}, {"measurement": "Additional organs/cancerous diseases", "setting": "[2]", "result": "CLL, BRCA, Melanoma, Uterine Cancer, Gallbladder Cancer and Bile Duct Cancer, AML, NHL"}]}
{"substance": "323 (IQIGEETVITV; listed as Homo sapiens) [compound 323]", "values": [{"measurement": "Peptide Presentation (presentation score)", "setting": "[1]", "result": "+"}, {"measurement": "Other relevant organs/ cancerous diseases", "setting": "[2]", "result": "NSCLC, SCLC, PrC, Leukemia, Melanoma, Esophageal Cancer, Uterine Cancer, Gallbladder Cancer, Bile Duct Cancer"}, {"measurement": "Additional organs/cancerous diseases", "setting": "[2]", "result": "CRC, CLL, BRCA"}]}
{"substance": "325 (FIMPATVADATAV; listed as Homo sapiens) [compound 325]", "values": [{"measurement": "Peptide Presentation (presentation score)", "setting": "[1]", "result": "+++"}, {"measurement": "Other relevant organs/ cancerous diseases", "setting": "[2]", "result": "Leukemia"}, {"measurement": "Additional organs/cancerous diseases", "setting": "[2]", "result": "CLL, BRCA, Melanoma, Uterine Cancer, NHL"}]}
{"substance": "327 (GLAPFTEGISFV; listed as Homo sapiens) [compound 327]", "values": [{"measurement": "Peptide Presentation (presentation score)", "setting": "[1]", "result": "++"}, {"measurement": "Other relevant organs/ cancerous diseases", "setting": "[2]", "result": "HCC"}, {"measurement": "Additional organs/cancerous diseases", "setting": "[2]", "result": "NSCLC, Gallbladder Cancer and Bile Duct Cancer"}]}
{"substance": "328 (ALNDQVFEI; listed as Homo sapiens) [compound 328]", "values": [{"measurement": "Peptide Presentation (presentation score)", "setting": "[1]", "result": "+"}, {"measurement": "Other relevant organs/ cancerous diseases", "setting": "[2]", "result": "SCLC, Brain Cancer, HCC, Esophageal Cancer, Uterine Cancer"}, {"measurement": "Additional organs/cancerous diseases", "setting": "[2]", "result": "AML"}]}
{"substance": "331 (KVDTVWVNV; listed as Homo sapiens) [compound 331]", "values": [{"measurement": "Peptide Presentation (presentation score)", "setting": "[1]", "result": "+"}, {"measurement": "Other relevant organs/ cancerous diseases", "setting": "[2]", "result": "SCLC, Leukemia, BrCa, Melanoma, Urinary bladder Cancer"}, {"measurement": "Additional organs/cancerous diseases", "setting": "[2]", "result": "CLL, Gallbladder Cancer and Bile Duct Cancer, HNSCC"}]}
{"substance": "332 (YLISELEAA; listed as Homo sapiens) [compound 332]", "values": [{"measurement": "Peptide Presentation (presentation score)", "setting": "[1]", "result": "+"}, {"measurement": "Other relevant organs/ cancerous diseases", "setting": "[2]", "result": "Brain Cancer, HCC, PC, PrC, Esophageal Cancer, Uterine Cancer"}, {"measurement": "Additional organs/cancerous diseases", "setting": "[2]", "result": "RCC, GC, BRCA, Melanoma"}]}
{"substance": "333 (FLPDANSSV; listed as Homo sapiens) [compound 333]", "values": [{"measurement": "Peptide Presentation (presentation score)", "setting": "[1]", "result": "++"}, {"measurement": "Other relevant organs/ cancerous diseases", "setting": "[2]", "result": "NSCLC, Brain Cancer, PrC, Leukemia, BrCa, Esophageal Cancer, Urinary bladder Cancer"}, {"measurement": "Additional organs/cancerous diseases", "setting": "[2]", "result": "HCC, Melanoma"}]}
{"substance": "334 (TLTKVLVAL; listed as Homo sapiens) [compound 334]", "values": [{"measurement": "Peptide Presentation (presentation score)", "setting": "[1]", "result": "+"}, {"measurement": "Other relevant organs/ cancerous diseases", "setting": "[2]", "result": "Urinary bladder Cancer"}, {"measurement": "Additional organs/cancerous diseases", "setting": "[2]", "result": "CLL"}]}
{"substance": "338 (SVLEDPVHAV; listed as Homo sapiens) [compound 338]", "values": [{"measurement": "Peptide Presentation (presentation score)", "setting": "[1]", "result": "+"}, {"measurement": "Other relevant organs/ cancerous diseases", "setting": "[2]", "result": "NSCLC, SCLC, HCC, Melanoma"}, {"measurement": "Additional organs/cancerous diseases", "setting": "[2]", "result": "BRCA, Esophageal Cancer, Uterine Cancer, Gallbladder Cancer and Bile Duct Cancer, NHL"}]}
{"substance": "341 (SQIALNEKLVNL; listed as Homo sapiens) [compound 341]", "values": [{"measurement": "Peptide Presentation (presentation score)", "setting": "[1]", "result": "+"}, {"measurement": "Other relevant organs/ cancerous diseases", "setting": "[2]", "result": "SCLC, HCC"}, {"measurement": "Additional organs/cancerous diseases", "setting": "[2]", "result": "Urinary Bladder Cancer"}]}
{"substance": "342 (HIYDKVMTV; listed as Homo sapiens) [compound 342]", "values": [{"measurement": "Peptide Presentation (presentation score)", "setting": "[1]", "result": "+"}, {"measurement": "Other relevant organs/ cancerous diseases", "setting": "[2]", "result": "Colon, Rectum"}, {"measurement": "Additional organs/cancerous diseases", "setting": "[2]", "result": "Esophageal Cancer, Gallbladder Cancer and Bile Duct Cancer"}]}
{"substance": "343 (SLLEVNEESTV; listed as Homo sapiens) [compound 343]", "values": [{"measurement": "Peptide Presentation (presentation score)", "setting": "[1]", "result": "+"}, {"measurement": "Other relevant organs/ cancerous diseases", "setting": "[2]", "result": "NSCLC, Leukemia, Melanoma"}, {"measurement": "Additional organs/cancerous diseases", "setting": "[2]", "result": "CLL"}]}
{"substance": "345 (VIWKALIHL; listed as Homo sapiens) [compound 345]", "values": [{"measurement": "Peptide Presentation (presentation score)", "setting": "[1]", "result": "++"}, {"measurement": "Other relevant organs/ cancerous diseases", "setting": "[2]", "result": "SCLC"}, {"measurement": "Additional organs/cancerous diseases", "setting": "[2]", "result": "NSCLC, Melanoma, NHL"}]}
{"substance": "346 (LLDSKVPSV; listed as Homo sapiens) [compound 346]", "values": [{"measurement": "Peptide Presentation (presentation score)", "setting": "[1]", "result": "++"}, {"measurement": "Other relevant organs/ cancerous diseases", "setting": "[2]", "result": "SCLC, HCC, PC, Esophageal Cancer, Urinary bladder Cancer, Gallbladder Cancer, Bile Duct Cancer"}, {"measurement": "Additional organs/cancerous diseases", "setting": "[2]", "result": "HNSCC"}]}
{"substance": "348 (ILLDVKTRL; listed as Homo sapiens) [compound 348]", "values": [{"measurement": "Peptide Presentation (presentation score)", "setting": "[1]", "result": "+++"}, {"measurement": "Other relevant organs/ cancerous diseases", "setting": "[2]", "result": "NSCLC, CRC, Esophageal Cancer, Urinary bladder Cancer"}, {"measurement": "Additional organs/cancerous diseases", "setting": "[2]", "result": "Melanoma, Gallbladder Cancer and Bile Duct Cancer, HNSCC"}]}
{"substance": "351 (SLIPNLRNV; listed as Homo sapiens) [compound 351]", "values": [{"measurement": "Peptide Presentation (presentation score)", "setting": "[1]", "result": "+++"}, {"measurement": "Additional organs/cancerous diseases", "setting": "[2]", "result": "CRC, Esophageal Cancer"}]}
{"substance": "352 (SLLELLHIYV; listed as Homo sapiens) [compound 352]", "values": [{"measurement": "Peptide Presentation (presentation score)", "setting": "[1]", "result": "+"}, {"measurement": "Additional organs/cancerous diseases", "setting": "[2]", "result": "CLL, AML"}]}
{"substance": "356 (KLLGKLPEL; listed as Homo sapiens) [compound 356]", "values": [{"measurement": "Peptide Presentation (presentation score)", "setting": "[1]", "result": "++"}, {"measurement": "Other relevant organs/ cancerous diseases", "setting": "[2]", "result": "NSCLC, CRC, Esophageal Cancer"}, {"measurement": "Additional organs/cancerous diseases", "setting": "[2]", "result": "Melanoma, Urinary Bladder Cancer"}]}
{"substance": "357 (SMHDLVLQV; listed as Homo sapiens) [compound 357]", "values": [{"measurement": "Peptide Presentation (presentation score)", "setting": "[1]", "result": "++"}, {"measurement": "Other relevant organs/ cancerous diseases", "setting": "[2]", "result": "Brain Cancer, PC, Endometrium"}]}
{"substance": "358 (ALDEYTSEL; listed as Homo sapiens) [compound 358]", "values": [{"measurement": "Peptide Presentation (presentation score)", "setting": "[1]", "result": "+"}, {"measurement": "Other relevant organs/ cancerous diseases", "setting": "[2]", "result": "Brain Cancer, PC, Leukemia, BrCa, Uterine Cancer"}, {"measurement": "Additional organs/cancerous diseases", "setting": "[2]", "result": "Urinary Bladder Cancer"}]}
